Laboratory results taken from patent US12441763B2, “Hangtaimycin derivatives and their preparation methods and application” (WUHAN UNIVERSITY, priority 2022, dated 2025).
At least one compound was matched to its structure with a doubt left.

System: alpha-naphthyl isothiocyanate-induced liver injury
Assay: Animal assay for hepatoprotective activity, alpha-naphthyl isothiocyanate-induced liver injury
Assay type: in vivo, Wistar rats
Method: Male Wistar rats weighing around 220 g were randomly divided into 7 groups with 12 rats in each group. After grouping, they were fed a standard diet under standard conditions and were orally gavaged continuously. The dosages of the positive control groups obeticholic acid and silymarin were 10 mg/kg and 5 mg/kg respectively. The HTMA group was divided into low, medium, and high-dose groups with doses of 2.5, 5, and 10 mg/kg. The control and model groups were orally gavaged with 0.5% sodium carboxymethyl cellulose (solvent) daily. After 7 days of gavage, the rats fasted for 12 hours. On the 8th day, their weight was measured, and all rats except for the control group were intraperitoneally injected with alpha-naphthyl isothiocyanate (50 mg/kg, dissolved in olive oil) to induce liver injury. The rats in the control group were intraperitoneally injected with the same amount of olive oil. After two more days of gavage and 12 hours of fasting, blood samples were taken to detect biochemical indicators reflecting the degree of liver cell damage (FIGS. 27A˜27C) and bile stasis (FIGS. 28A˜28E), and liver immunohistochemical detection was performed (FIGS. 29A, 29B and 30A˜30F).

## CC[C@H]1[C@@H](O)[C@@H]2[C@H](CC[C@]3(C)[C@@H]([C@H](C)CCC(=O)O)CC[C@@H]23)[C@@]2(C)CC[C@@H](O)C[C@@H]12 [obeticholic acid, reference compound]
10 mg/kg oral gavage (HTMA high dose HH; obeticholic acid), vs liver injury model group
  levels of LDH: significantly reduced
10 mg/kg oral gavage (obeticholic acid)
  effects on other biochemical indicators relative to high-dose HTMA: weaker
